According to paper PMC9571594, “Development of Semisynthetic Apoptosis-Inducing Agents Based on Natural Phenolic Acids Scaffold: Design, Synthesis and In-Vitro Biological Evaluation” (Molecules, 2022):

These compounds were tested on Vero normal cell line (assay: MTT cell viability assay on normal Vero cells (selectivity)). Conditions: SI (Selectivity index) = IC50 on Vero cells/IC50 on Caco-2 (Table 3).
Format: cell-based
Method: MCF-7 cells (Human breast adenocarcinoma), HepG2 (human hepatocellular carcinoma), A549 (human lung adenocarcinoma), Caco-2 (colon carcinoma), PANC-1 (human pancreatic cancer), and Vero cells (derived from normal kidney cells) were supplied by (Holding Company for Biological Products and Vaccines VACSERA; Giza, Egypt).
The effect of parent compounds and their derivatives were assessed by (3-(4,5-dimethylthiazol-2-yl)-2,5diphenyl-tetrazolium bromide) MTT assay. […] After a merged sheet of cells developed, the growth media was decanted from the 96-well microtiter and refilled with different concentrations of compounds (µg/mL), and the plate was incubated at 37 °C for 48 h to minimize exposure to the dissolving agent (Supporting Information).
MTT solution (BIO BASIC CANADA INC) was prepared [5 mg/mL in phosphate buffered saline (PBS)], added to each well and incubated for 4 h, then after removing the media, 200 μL of DMSO was added to each well to solubilize the formazan crystals and the optical density of the formazan product was measured at 560 nm using microplate reader (mindray, MR-96A). The results were calculated as the mean of the three independent experiments. […]
Determination of sample cytotoxicity on cells (MTT protocol) […]
well) and incubated at 37°C for 24 hours to develop a complete monolayer sheet.
2- Growth medium was decanted from 96 well micro titer plates after confluent sheet of cells were formed, cell monolayer was washed twice with wash media.
3- two-fold dilutions of tested sample was made in RPMI medium with 2% serum […]
4- 0.1 ml of each dilution was tested in different wells leaving 3 wells as control, receiving only maintenance medium.
5- Plate was incubated at 37°C and examined. Cells were checked for any physical signs of toxicity, e.g. partial or complete loss of the monolayer, rounding, shrinkage, […]
6- MTT solution was prepared (5mg/ml in PBS) (BIO BASIC CANADA INC).
8- 20ul MTT solution were added to each well. Place on a shaking table, 150rpm for 5 minutes, to thoroughly mix the MTT into the media.
10) Dump off the media. (dry plate on paper towels to remove residue if necessary. […]

SMILES | SI Vero
COc1ccc(/C=C/C(=O)N2CCN(c3ccccc3)CC2)cc1O [Compound 12, (E)-3-(3-Hydroxy-4-methoxyphenyl)-1-(4-phenylpiperazin-1-yl)prop-2-en-1-one] | 0.048
COc1ccc(/C=C/C(=O)NCc2ccccc2)cc1O [Compound 18, (E)-N-Benzyl-3-(3-hydroxy-4-methoxyphenyl) acrylamide] | 0.15
Nc1ccccc1NC(=O)/C=C/c1ccc(O)c(O)c1 [Compound 11, (E)-N-(2-Aminophenyl)-3-(3,4-dihydroxyphenyl)acrylamide] | 0.13
COc1ccc(NC(=O)/C=C/c2ccc(O)c(OC)c2)cc1 [Compound 16, (E)-3-(4-Hydroxy-3-methoxyphenyl)-N-(4-methoxyphenyl)acrylamide] | 0.13
O=C(/C=C/c1ccc(O)c(O)c1)NC1CCCCC1 [Compound 6, (E)-N-Cyclohexyl-3-(3,4-dihydroxyphenyl)acrylamide] | 0.083
O=C(/C=C/c1ccc(O)c(O)c1)Nc1ccc(O)cc1 [Compound 4, (E)-3-(3,4-Dihydroxyphenyl)-N-(4-hydroxyphenyl)acrylamide] | 0.094
COc1ccc(NC(=O)/C=C/c2ccc(O)c(O)c2)cc1 [Compound 8, (E)-N-(4-Methoxyphenyl)-3-(3,4-dihydroxyphenyl)acrylamide] | 0.14
COc1ccc(/C=C/C(=O)Nc2ccccc2N)cc1O [Compound 20, (E)-N-(2-Aminophenyl)-3-(3-hydroxy-4-methoxyphenyl)acrylamide] | 0.082
O=C(/C=C/c1ccc(O)c(O)c1)Nc1ccc(Br)cc1 [Compound 7, (E)-N-(4-Bromophenyl)-3-(3,4-dihydroxyphenyl)acrylamide] | 0.99
O=C(/C=C/c1ccc(O)c(O)c1)N1CCN(c2ccccc2)CC1 [Compound 3, (E)-3-(3,4-Dihydroxyphenyl)-1-(4-phenylpiperazin-1-yl)prop-2-en-1-one] | 0.087
COc1ccc(NC(=O)/C=C/c2ccc(OC)c(O)c2)cc1 [Compound 13, (E)-3-(3-Hydroxy-4-methoxyphenyl)-N-(4-methoxyphenyl)acrylamide] | 0.089
COc1cc(/C=C/C(=O)NC2CCCCC2)ccc1O [Compound 15, (E)-N-Cyclohexyl-3-(4-hydroxy-3-methoxyphenyl)acrylamide] | 0.13
COc1cc(/C=C/C(=O)Nc2ccc(Cl)cc2)ccc1O [Compound 19, (E)-N-(4-Chlorophenyl)-3-(4-hydroxy-3-methoxyphenyl)acrylamide] | 0.077

Same assay, conditions: SI (Selectivity index) = IC50 on Vero cells/IC50 on cancer cells (Table 2)

SMILES | SI Vero
COc1cccc2c1C(=O)c1c(O)c3c(c(O)c1C2=O)C[C@@](O)(C(=O)CO)C[C@@H]3O[C@H]1C[C@H](N)[C@H](O)[C@H](C)O1 [Doxorubicin] | 0.04
